Results published in the supplement of paper PMC10735217.
Structures can show the parent of a compound that is named as a salt. The list shows a part of the results. Repeats in this data set agree poorly, so a single value says little.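 In a drug-repurposing library screen, luminescence reads luciferase driven by eight TEAD-binding elements, stably integrated into human kidney-derived cells. Compounds scoring over five robust Z scores above the plate mean are called hits.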

Tested on: HEK293A TEAD-LUC reporter
Test: TEAD-luciferase reporter activity (YAP activation), robust Z score vs plate; higher = stronger YAP/TEAD activation
Settings: 24 h

Row | Structure (SMILES) | TEAD-luciferase reporter activity (compound concentration: 200 nM) | TEAD-luciferase reporter activity (compound concentration: 2 uM) | TEAD-luciferase reporter activity (compound concentration: 10 uM)
1 | Cc1ccc(NS(=O)(=O)c2cccc(C#N)c2)c2[nH]cc(C#N)c12 | inactive: 0.23 | inactive: 3.86 | active: 5.09
2 | CC1=C(CO)C(=O)O[C@@H]([C@@H](C)[C@H]2CCC3[C@@H]4C[C@H]5O[C@]56[C@@H](O)C=CC(=O)[C@]6(C)C4CC[C@@]32C)C1 (some centres not stated) | inactive: -1.07 | inactive: 1.6 | active: 7.16
3 | COc1ccc(OCC(O)CN2CCC(c3ccc(O)cc3)CC2)cc1 (configuration not stated) | inactive: 1.97 | inactive: -0.0381 | inactive: 4.19
4 | NCCC(=O)NCCSSCCNC(=O)CCN | inactive: -0.168 | – | inactive: -0.579
5 | NCCC(=O)NCCSSCCNC(=O)CCN [beta-Alethine] | – | inactive: -0.769 | –
6 | O=C(C1CCCN(S(=O)(=O)c2cccc(C(F)(F)F)c2)C1)N1CCC(N2CCCC2=O)CC1 (configuration not stated) | inactive: 2.58 | – | inactive: -1.41
7 | C#C[C@]1(O)CC[C@H]2[C@@H]3CCC4=CC(=O)CC[C@@H]4[C@H]3CC[C@@]21CC [Levonorgestrel] | inactive: -0.944 | inactive: -0.0392 | inactive: -0.154
8 | CN(Cc1cnc2nc(N)nc(N)c2n1)c1ccc(C(=O)N[C@@H](CCC(=O)O)C(=O)O)cc1 [Methotrexate] | – | inactive: -0.263 | –
9 | CN(Cc1cnc2nc(N)nc(N)c2n1)c1ccc(C(=O)N[C@@H](CCC(=O)O)C(=O)O)cc1 | inactive: 2.44 | – | inactive: 1.65
10 | C[C@H](NC(=O)C(C)(C)Oc1ccc(C(F)(F)F)cn1)[C@@H](Cc1ccc(Cl)cc1)c1ccc(Cl)cc1 [CB1R inverse agonist, Merck] | inactive: -0.335 | inactive: -0.59 | inactive: -1.24
11 | CC(COc1ccccc1)NC(C)C(O)c1ccc(O)cc1 (configuration not stated) | – | inactive: 0.337 | –
12 | CC(COc1ccccc1)NC(C)C(O)c1ccc(O)cc1 (configuration not stated) [Duvadilan] | inactive: -0.588 | – | inactive: -1.67
13 | C#Cc1ccc2c(c1)CCC1=C(C)C(=O)CCN12 | inactive: -1.47 | inactive: 1.15 | inactive: 0.812
14 | C[C@@H]1CCNC1c1nc2c(C(N)=O)cccc2[nH]1 (some centres not stated) | inactive: -1.23 | inactive: -0.594 | inactive: -0.606
15 | N=C(N)NCCC[C@H](NC(=O)CNC(=O)CCSC(=O)c1ccccc1)C(=O)O [argitiopronine] | inactive: -1.7 | inactive: -0.637 | inactive: 2.66
16 | CC(C)S(=O)(=O)n1c(N)nc2ccc(/C(=N/O)c3ccccc3)cc21 [Enviroxime] | inactive: -1.71 | inactive: -1.97 | inactive: -1.64
17 | CN(C)c1ccc([P+](CCCCl)(c2ccc(N(C)C)cc2)c2ccc(N(C)C)cc2)cc1 | inactive: -1.91 | inactive: -0.504 | inactive: 0.72
18 | CN1CCN(c2ccc(Nc3ncc4cc5n(c4n3)C3(CCCCC3)CNC5=O)nc2)CC1 [Trilaciclib hydrochloride] | inactive: -0.639 | – | inactive: 1.1
19 | O=C(Cn1c2ccccc2c2c(N3CCCC3)nc(N3CCCC3)nc21)N1CCCC1 | inactive: -0.924 | inactive: 1.3 | inactive: 3.17

Row | Structure (SMILES) | TEAD-luciferase reporter activity (compound concentration: 200 nM) | TEAD-luciferase reporter activity (compound concentration: 2 uM) | TEAD-luciferase reporter activity (compound concentration: 10 uM)
20 | CCCCc1oc2ccc(NS(C)(=O)=O)cc2c1C(=O)c1ccc(OCCCN(CCCC)CCCC)cc1 [dronedarone hydrochloride] | inactive: -2.53 | inactive: 1.4 | active: 7.15
21 | COc1c(OC)c(OC(C)=O)c2cc(Cl)ccc2c1OC(C)=O | inactive: -1.01 | inactive: 1.61 | inactive: -1.19
22 | COc1ccc(CC(=O)N2CCC3(CC2)CC(NC(C)=O)c2ccccc23)cc1 (configuration not stated) | inactive: 0.0964 | – | inactive: 0.459
23 | CCOC(=O)c1cc(OC)ccc1O | inactive: -0.469 | inactive: 0.517 | inactive: -1.34
24 | CC(CN(C)C)CN1c2ccccc2Sc2ccccc21 (configuration not stated) [Trimeprazine tartrate] | – | inactive: 3.73 | –
25 | CC(CN(C)C)CN1c2ccccc2Sc2ccccc21 (configuration not stated) | inactive: -0.516 | – | active: 10
26 | CCc1noc(C2CN=CNC2)n1 (configuration not stated) | inactive: -0.254 | inactive: 0.172 | inactive: -1.03
27 | O=C(O)Cn1c(C(=O)Nc2nc(-c3ccccc3Cl)cs2)cc2ccccc21 | inactive: -0.403 | active: 7.88 | active: 10.7
28 | CCOC(=O)/C=C/C(=O)O [monoethyl maleate] | inactive: -0.275 | inactive: -1.8 | inactive: -1.19
29 | CCc1cc(NCc2nc3c(Cl)ccc(Cl)c3o2)c(=O)[nH]c1C | inactive: -1.38 | inactive: -1.81 | inactive: -0.947
30 | O=C1NCc2ccccc2CC12CCCN2Cc1ccc(F)cc1 (configuration not stated) | inactive: -0.119 | – | inactive: -1.38
31 | CN(C)CCOC(c1ccccc1)c1ccccc1 | inactive: -0.0598 | – | inactive: 3.92
32 | CN(C)CCOC(c1ccccc1)c1ccccc1 [Diphenhydramine hydrochloride] | – | inactive: 0.46 | –
33 | COCC1=C(C(=O)OC)C(c2ccc(F)c(F)c2)N(C(=O)NCCCN2CCC(c3ccccn3)CC2)C(=O)N1 (configuration not stated) | inactive: 0.338 | inactive: -1.11 | inactive: -1.37
34 | NCCc1ccc(OCCCS(=O)(=O)CCOCCc2cccc3ccccc23)c2[nH]c(=O)sc12 | inactive: -0.496 | inactive: -1.41 | inactive: -1.4
35 | CC(C(=O)O)c1ccc(Nc2ccccc2C(=O)O)cc1 (configuration not stated) | inactive: -1.28 | inactive: 0.139 | inactive: 1.24
36 | O=C(O)C[C@H]1CC[C@H](c2ccc(-c3ccc(Nc4ccc(C(F)(F)F)nc4)cn3)cc2)CC1 | inactive: -1.58 | – | inactive: 0.185
37 | O=C(O)C[C@H]1CC[C@H](c2ccc(-c3ccc(Nc4ccc(C(F)(F)F)nc4)cn3)cc2)CC1 [Pradigastat] | – | inactive: -0.0791 | –
38 | COC(=O)C1=C(C)NC(C)=C(C(=O)OC(C)(C)CN(C)CCC(c2ccccc2)c2ccccc2)C1c1cccc([N+](=O)[O-])c1 (configuration not stated) [Lercanidipine Hydrochloride] | inactive: 1.17 | – | inactive: 0.981

Row | Structure (SMILES) | TEAD-luciferase reporter activity (compound concentration: 200 nM) | TEAD-luciferase reporter activity (compound concentration: 2 uM) | TEAD-luciferase reporter activity (compound concentration: 10 uM)
39 | COC(=O)C1=C(C)NC(C)=C(C(=O)OC(C)(C)CN(C)CCC(c2ccccc2)c2ccccc2)C1c1cccc([N+](=O)[O-])c1 (configuration not stated) [lercanidipine immediate release] | – | inactive: -1.94 | –
40 | CCOc1ccc(-c2cc(C)cn2-c2ccc(S(N)(=O)=O)cc2)cc1 | inactive: -0.0858 | inactive: 0.786 | inactive: -0.0817
41 | C[C@]12C=CC(=O)C=C1CC[C@@H]1C2=CC[C@]2(C)[C@@H](C(=O)CN3CCN(c4cc(N5CCCC5)nc(N5CCCC5)n4)CC3)CC[C@@H]12 | inactive: -0.635 | inactive: -1.33 | inactive: 0.245
42 | CN1CC/C(=N\O)c2ccn(CCCCN3CCC(C(=O)c4ccc(F)cc4)CC3)c2C1=O | inactive: -1.13 | inactive: 1.16 | inactive: 0.874
43 | O=C(NCCO)C1CCCN(c2nc(NCc3ccccn3)c3c(-c4ccccc4)csc3n2)C1 (configuration not stated) | inactive: -0.485 | inactive: 2.75 | inactive: -0.485
44 | CN1CCc2c(-c3ccc(S(=O)(=O)N(C)C)cc3)cc3c(c2C1)NC(=O)/C3=N\OC(CCO)C(=O)[O-] (configuration not stated) | inactive: 2.69 | inactive: -0.0969 | inactive: 0.372
45 | C/C(=C(/CCOP(=O)(O)O)SC(=O)c1ccccc1)N(C=O)Cc1cnc(C)nc1N [benfotiamine, Alterix] | inactive: 2.58 | – | inactive: -0.857
46 | C/C(=C(/CCOP(=O)(O)O)SC(=O)c1ccccc1)N(C=O)Cc1cnc(C)nc1N [benfotiamine] | – | inactive: -0.479 | –
47 | CC(C)C(=O)N1Cc2ccccc2CC2(CCCCN2C)C1 (configuration not stated) | inactive: 1.41 | – | inactive: 0.497
48 | CC(=O)NC(C)c1cc(Cl)ccc1C1CCN(C(=O)[C@@H]2CN(C(C)(C)C)C[C@H]2c2ccc(F)cc2F)CC1 (some centres not stated) | inactive: 1.77 | inactive: 1.03 | inactive: 0.488
49 | CC1(c2cccc3ccccc23)NC(=O)NC1=O (configuration not stated) | inactive: -0.587 | inactive: -1.9 | inactive: 3.77
50 | Cc1c(-c2ccnn2C)cc(C(=O)NCc2ccc(S(C)(=O)=O)cn2)c(=O)n1-c1cccc(C(F)(F)F)c1 [Alvelestat] | inactive: 0.882 | inactive: -0.621 | inactive: 0.968
51 | O=C(NCC(=O)N1CC[C@H](N[C@H]2CC[C@@](O)(c3ccc(-c4ncccn4)cn3)CC2)C1)c1cccc(C(F)(F)F)c1 | inactive: -1.45 | inactive: 1.51 | inactive: -0.814
52 | Cc1[nH]cnc1CC1CCc2c(c3ccccc3n2C)C1=O (configuration not stated) | inactive: -0.452 | inactive: -0.638 | inactive: 1.8
53 | O=C1CCC2(CCC(=O)c3ccccc32)C(=O)N1 (configuration not stated) | inactive: -0.267 | inactive: -0.848 | inactive: 1.76
54 | O=[N+]([O-])c1ccc2c(c1)[C@H](O)[C@@H](N1CCN(c3cccc4c3OCCO4)CC1)C2 | inactive: -1.18 | inactive: -1.37 | inactive: -0.282
55 | CCOC(=O)C(CCc1ccccc1)NC1CCc2ccccc2N(CC(=O)O)C1=O (configuration not stated) [benazepril] | inactive: 1.75 | inactive: 0.0437 | inactive: -0.907
56 | O=P([O-])([O-])[O-] [tri-Potassium orthophosphate] | inactive: 0.271 | inactive: -0.746 | inactive: 1.28
57 | Cn1cc(C(=O)O)c2ccc(N3CCC(OCc4c(-c5c(Cl)cccc5Cl)noc4C4CC4)CC3)cc21 | inactive: 3.54 | inactive: 0.033 | inactive: -0.573

Complete entries as entered above.
NCCc1ccc(OCCCS(=O)(=O)CCOCCc2cccc3ccccc23)c2[nH]c(=O)sc12 in the list: TEAD-luciferase reporter activity (compound concentration: 200 nM): inactive: -0.496; TEAD-luciferase reporter activity (compound concentration: 2 uM): inactive: -1.41; TEAD-luciferase reporter activity (compound concentration: 10 uM): inactive: -1.4
CCCCc1oc2ccc(NS(C)(=O)=O)cc2c1C(=O)c1ccc(OCCCN(CCCC)CCCC)cc1 [dronedarone hydrochloride] in the list: TEAD-luciferase reporter activity (compound concentration: 200 nM): inactive: -2.53; TEAD-luciferase reporter activity (compound concentration: 2 uM): inactive: 1.4; TEAD-luciferase reporter activity (compound concentration: 10 uM): active: 7.15
